According to patent US8026262B2, “Chemical compounds” (GlaxoSmithKline LLC, priority 2006, dated 2011):
Some entries share one result that the patent states for a list of compounds.

Each molecule was assayed against T1, human AR (Homo sapiens, UniProt P10275) (assay: AR functional assay (agonist mode), MMTV luciferase reporter in transfected CV-1 cells). Conditions: CV-1 cells transfected with human AR and MMTV luciferase, values said to be exemplary only.
T1 sequence (P10275 560-920 limits assumed): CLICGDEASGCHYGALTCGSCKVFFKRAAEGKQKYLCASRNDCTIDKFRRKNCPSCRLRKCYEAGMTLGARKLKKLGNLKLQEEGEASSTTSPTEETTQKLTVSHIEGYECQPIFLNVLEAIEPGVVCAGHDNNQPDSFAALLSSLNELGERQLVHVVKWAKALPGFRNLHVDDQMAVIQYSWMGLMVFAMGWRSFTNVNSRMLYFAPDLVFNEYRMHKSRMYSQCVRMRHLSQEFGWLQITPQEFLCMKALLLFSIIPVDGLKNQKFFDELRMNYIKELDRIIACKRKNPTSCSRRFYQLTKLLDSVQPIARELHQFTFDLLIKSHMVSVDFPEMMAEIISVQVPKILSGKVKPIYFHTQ
Type: cell-based

| SMILES | pIC50 in the agonist mode of the AR functional assay |
| --- | --- |
| CC1Cc2c(ccc(C#N)c2C(F)(F)F)N1Cc1noc(-c2cc(C(F)(F)F)cc(C(F)(F)F)c2)n1 (stereo not shown) [Example 183, 1-({5-[3,5-Bis(trifluoromethyl)phenyl]-1,2,4-oxadiazol-3-yl}methyl)-2-methyl-4-(trifluoromethyl)-2,3-dihydro-1H-indole-5-carbonitrile] | ≥ 5.01 |
| CC1Cc2c(ccc(C#N)c2C(F)(F)F)N1Cc1noc(-c2cccc(C(F)(F)F)c2)n1 (stereo not shown) [Example 184, 2-Methyl-4-(trifluoromethyl)-1-({5-[3-(trifluoromethyl)phenyl]-1,2,4-oxadiazol-3-yl}methyl)-2,3-dihydro-1H-indole-5-carbonitrile] | ≥ 5.01 |
| Cc1noc(C)c1-c1nc(CN2c3ccc(C#N)c(C(F)(F)F)c3CC2C)no1 (stereo not shown) [Example 185, 1-{[5-(3,5-Dimethyl-4-isoxazolyl)-1,2,4-oxadiazol-3-yl]methyl}-2-methyl-4-(trifluoromethyl)-2,3-dihydro-1H-indole-5-carbonitrile] | ≥ 5.01 |
| CC1Cc2c(ccc(C#N)c2C(F)(F)F)N1Cc1ccc(C(F)(F)F)o1 (stereo not shown) [Example 186, 2-Methyl-4-(trifluoromethyl)-1-{[5-(trifluoromethyl)-2-furanyl]methyl}-2,3-dihydro-H-indole-5-carbonitrile] | ≥ 5.01 |
| CC1Cc2c(ccc(C#N)c2C(F)(F)F)N1Cc1nc(-c2cccc(C(F)(F)F)c2)no1 (stereo not shown) [Example 187, 2-Methyl-4-(trifluoromethyl)-1-({3-[3-(trifluoromethyl)phenyl]-1,2,4-oxadiazol-5-yl}methyl)-2,3-dihydro-1H-indole-5-carbonitrile] | ≥ 5.01 |
| CC1Cc2c(ccc(C#N)c2C(F)(F)F)N1Cc1nc(-c2cc(C(F)(F)F)cc(C(F)(F)F)c2)no1 (stereo not shown) [Example 188, 1-({3-[3,5-Bis(trifluoromethyl)phenyl]-1,2,4-oxadiazol-5-yl}methyl)-2-methyl-4-(trifluoromethyl)-2,3-dihydro-1H-indole-5-carbonitrile] | ≥ 5.01 |
| CC(=O)Nc1ccc(OCCN2c3ccc(C#N)c(C(F)(F)F)c3CC2C)cc1 (stereo not shown) [Example 189, N-[4-({2-[5-Cyano-2-methyl-4-(trifluoromethyl)-2,3-dihydro-1H-indol-1-yl]ethyl}oxy)phenyl]acetamide] | ≥ 5.01 |
| CC1Cc2c(ccc(C#N)c2C(F)(F)F)N1CCOc1ccc(C(F)(F)F)cn1 (stereo not shown) [Example 190, 2-Methyl-4-(trifluoromethyl)-1-(2-{[5-(trifluoromethyl)-2-pyridinyl]oxy}ethyl)-2,3-dihydro-1H-indole-5-carbonitrile] | ≥ 5.01 |
| N#Cc1ccc2c(cc(C(F)(F)F)n2CC(N)=O)c1C(F)(F)F [Example 191, 2-[5-Cyano-2,4-bis(trifluoromethyl)-1H-indol-1-yl]acetamide] | ≥ 5.01 |
| N#Cc1ccc2c(cc(C(F)(F)F)n2Cc2noc(-c3cccc(C(F)(F)F)c3)n2)c1C(F)(F)F [Example 192, 2,4-Bis(trifluoromethyl)-1-({5-[3-(trifluoromethyl)phenyl]-1,2,4-oxadiazol-3-yl}methyl)-1H-indole-5-carbonitrile] | ≥ 5.01 |
| N#Cc1ccc2c(cc(C(F)(F)F)n2Cc2nnc(-c3cncc(Br)c3)o2)c1C(F)(F)F [Example 193, 1-{[5-(5-Bromo-3-pyridinyl)-1,3,4-oxadiazol-2-yl]methyl}-2,4-bis(trifluoromethyl)-1H-indole-5-carbonitrile] | ≥ 5.01 |
| N#Cc1ccc2c(cc(C(F)(F)F)n2Cc2noc(-c3cc(F)cc(F)c3)n2)c1C(F)(F)F [Example 194, 1-{[5-(3,5-Difluorophenyl)-1,2,4-oxadiazol-3-yl]methyl}-2,4-bis(trifluoromethyl)-1H-indole-5-carbonitrile] | ≥ 5.01 |
| CCc1nc2c(Cl)c(C#N)ccc2n1CC(F)(F)F [Example 195, 4-Chloro-2-ethyl-1-(2,2,2-trifluoroethyl)-1H-benzimidazole-5-carbonitrile] | ≥ 5.01 |
| CCc1nc2c(Cl)c(Br)ccc2n1Cc1noc(-c2cccc(C(F)(F)F)c2)n1 [Example 196, 5-Bromo-4-chloro-2-ethyl-1-({5-[3-(trifluoromethyl)phenyl]-1,2,4-oxadiazol-3-yl}methyl)-1H-benzimidazole] | ≥ 5.01 |
| CCc1nc2c(Cl)c(C#N)ccc2n1Cc1noc(-c2cccc(C(F)(F)F)c2)n1 [Example 197, 4-Chloro-2-ethyl-1-({5-[3-(trifluoromethyl)phenyl]-1,2,4-oxadiazol-3-yl}methyl)-1H-benzimidazole-5-carbonitrile] | ≥ 5.01 |
| CCc1nc2c(Cl)c(C#N)ccc2n1Cc1noc(-c2c(C)noc2C)n1 [Example 198, 4-Chloro-1-{[5-(3,5-dimethyl-4-isoxazolyl)-1,2,4-oxadiazol-3-yl]methyl}-2-ethyl-1H-benzimidazole-5-carbonitrile] | ≥ 5.01 |

| SMILES | pIC50 in the agonist mode of the AR functional assay |
| --- | --- |
| CCc1nc2c(Cl)c(C#N)ccc2n1Cc1noc(-c2cc(C(F)(F)F)cc(C(F)(F)F)c2)n1 [Example 199, 1-({5-[3,5-Bis(trifluoromethyl)phenyl]-1,2,4-oxadiazol-3-yl}methyl)-4-chloro-2-ethyl-1H-benzimidazole-5-carbonitrile] | ≥ 5.01 |
| N#Cc1ccc2c(nc(C(F)(F)F)n2Cc2cscn2)c1Cl [Example 203, 4-Chloro-1-(1,3-thiazol-4-ylmethyl)-2-(trifluoromethyl)-1H-benzimidazole-5-carbonitrile] | ≥ 5.01 |
| N#Cc1ccc2c(nc(C(F)(F)F)n2CC(F)(F)F)c1Cl [Example 205, 4-Chloro-1-(2,2,2-trifluoroethyl)-2-(trifluoromethyl)-1H-benzimidazole-5-carbonitrile] | ≥ 5.01 |
| N#Cc1ccc2c(cnn2Cc2noc(-c3cccc(C(F)(F)F)c3)n2)c1C(F)(F)F [Example 210, 4-(Trifluoromethyl)-1-({5-[3-(trifluoromethyl)phenyl]-1,2,4-oxadiazol-3-yl}methyl)-1H-indazole-5-carbonitrile] | ≥ 5.01 |
| N#Cc1ccc2c(cnn2Cc2noc(-c3cccc(C(F)(F)F)c3)n2)c1C#N [Example 211, 1-({5-[3-(Trifluoromethyl)phenyl]-1,2,4-oxadiazol-3-yl}methyl)-1H-indazole-4,5-dicarbonitrile] | ≥ 5.01 |
| CCCc1cc2c(Cl)c(C#N)ccc2n1Cc1noc(-c2cccc(C(F)(F)F)c2)n1 [Example 212, 4-Chloro-2-propyl-1-({5-[3-(trifluoromethyl)phenyl]-1,2,4-oxadiazol-3-yl}methyl)-1H-indole-5-carbonitrile] | ≥ 5.01 |
| CCCc1cc2c(Cl)c(C#N)ccc2n1Cc1noc(-c2cc(F)cc(F)c2)n1 [Example 213, 4-Chloro-1-{[5-(3,5-difluorophenyl)-1,2,4-oxadiazol-3-yl]methyl}-2-propyl-1H-indole-5-carbonitrile] | ≥ 5.01 |
| CCCc1cc2c(Cl)c(C#N)ccc2n1Cc1nnc(-c2cncc(Br)c2)o1 [Example 214, 1-{[5-(5-Bromo-3-pyridinyl)-1,3,4-oxadiazol-2-yl]methyl}-4-chloro-2-propyl-1H-indole-5-carbonitrile] | ≥ 5.01 |
| Cc1cc2c(Cl)c(C#N)ccc2n1Cc1noc(-c2cc(F)cc(F)c2)n1 [Example 216, 4-Chloro-1-{[5-(3,5-difluorophenyl)-1,2,4-oxadiazol-3-yl]methyl}-2-methyl-1H-indole-5-carbonitrile] | ≥ 5.01 |
| Cc1cc2c(Cl)c(C#N)ccc2n1Cc1nnc(-c2cncc(Br)c2)o1 [Example 217, 1-{[5-(5-Bromo-3-pyridinyl)-1,3,4-oxadiazol-2-yl]methyl}-4-chloro-2-methyl-1H-indole-5-carbonitrile] | ≥ 5.01 |
| CCCc1cc2c(Cl)c(C#N)ccc2n1Cc1noc(-c2cc(C(F)(F)F)cc(C(F)(F)F)c2)n1 [Example 218, 1-({5-[3,5-bis(Trifluoromethyl)phenyl]-1,2,4-oxadiazol-3-yl}methyl)-4-chloro-2-propyl-1H-indole-5-carbonitrile] | ≥ 5.01 |
| CCCc1cc2c(Cl)c(C#N)ccc2n1CCOc1ccc(NC(C)=O)cc1 [Example 219, N-(4-{[2-(4-Chloro-5-cyano-2-propyl-1H-indol-1-yl)ethyl]oxy}phenyl)acetamide] | ≥ 5.01 |
| CCCc1cc2c(Cl)c(C#N)ccc2n1Cc1noc(-c2c(C)noc2C)n1 [Example 220, 4-Chloro-1-{[5-(3,5-dimethyl-4-isoxazolyl)-1,2,4-oxadiazol-3-yl]methyl}-2-propyl-1H-indole-5-carbonitrile] | ≥ 5.01 |
| CCCc1cc2c(Cl)c(C#N)ccc2n1CCOc1ccc(F)cc1 [Example 221, 4-Chloro-1-{2-[(4-fluorophenyl)oxy]ethyl}-2-propyl-1H-indole-5-carbonitrile] | ≥ 5.01 |
| CCCc1cc2c(Cl)c(C#N)ccc2n1CCOc1ccc(F)cc1F [Example 222, 4-Chloro-1-{2-[(2,4-difluorophenyl)oxy]ethyl}-2-propyl-1H-indole-5-carbonitrile] | ≥ 5.01 |
